Assay results published in PubChem BioAssay AID1347075 (National Center for Advancing Translational Sciences (NCATS), 2019).
About 5,500 (1.4%) of roughly 400,000 compounds were called active. This list was built around the results that the source calls inconclusive (neither active nor inactive); the mix of calls is not that of the screen. Calls follow the shape of the dose curve; as a rule, active = well fitted cell-killing curve with a large enough effect; inconclusive = small, poorly fitted or top-dose-only effect, or effect the other way; inactive = flat fitted curve, though single readings scatter. Where the call is inconclusive, the potency comes from a doubtful curve fit.

experiment: qHTS assay for MDR1-selective chemotherapeutics: Primary screen using the parental adenocarcinoma cell KB-3-1; details: KB-3-1 viability, CellTiter-Glo ATP luminescence, 72 h; activity change, negative = cytotoxic: at 46.1 µM (top of the series); also: nearly all actives have a fitted effect of over 60% in size
How it was run: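 Parental KB-3-1 adenocarcinoma cells in phenol-red-free DMEM with 10% FBS were pin-treated with compounds at several concentrations, incubated 72 h at 37 °C, and viability read by CellTiter-Glo luminescence; concentration-effect curves were fitted after normalization.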
% is scaled to controls: 0 for no effect and ±100 for the full control effect; potency is read from the fitted curve at half-maximal effect.

SMILES | Potency | activity change, negative = cytotoxic
COc1ccc2cc3c(N)nn(C(=O)C4CCC(C(C)(C)C)CC4)c3nc2c1 (stereo unspecified) | inconclusive: 29.1 µM [cytotoxic, single point] | –
O=C(Nc1cccc(-c2csc(Nc3ccccc3)n2)c1)c1cc([N+](=O)[O-])cc(C(F)(F)F)c1 | inconclusive: 32.6 µM [cytotoxic, single point] | –
Cc1cccc(NC(=O)CNC(=O)Cn2ncc(Cl)c(Cl)c2=O)c1C | inconclusive: 29.1 µM [cytotoxic, single point] | –
O=c1[nH]c(-c2ccccn2)nc(C(F)(F)F)c1Br | inconclusive: 3.66 µM [cytotoxic, full curve] | –
N/C(=N\OC(=O)C(c1ccccc1)c1ccccc1)c1ccccn1 | inconclusive: 29.1 µM [cytotoxic, single point] | –
CCCCCOc1ccc2oc(=O)c3c(c2c1)CCCN3C(=O)CN1CCCC(C(=O)OCC)C1 (stereo unspecified) | inconclusive: 29.1 µM [cytotoxic, single point] | –
Cc1cc(C)cc(NC(=O)Cn2nnc(C(=O)NCc3ccco3)c2N)c1 | inconclusive: 18.4 µM [cytotoxic, single point] | –
OCCN(CC#CC(O)(c1ccccc1)C1CCCCC1)CCO (stereo unspecified) | inconclusive: 0.58 µM [cytotoxic, full curve, poor fit] | –
CCOC(=O)C1=C(C)NC(=O)CC1c1cc2c(cc1Br)OCO2 (stereo unspecified) | inconclusive: 29.1 µM [cytotoxic, single point] | –
COc1ccc(NC(=O)c2ccccc2NS(=O)(=O)c2ccc(CNC(C)=O)cc2)c(OC)c1 | inconclusive: 16.4 µM [cytotoxic, single point] | –
Cc1cc(C)nc(/N=C(\N)Nc2ccccc2-c2ccccc2)n1 | inconclusive: 14.6 µM [cytotoxic, partial curve] | –
COc1ccc(NC(=O)CN2CCN(S(=O)(=O)c3ccc(Br)cc3)CC2)cc1 | inactive | –
Cc1ccc(-c2nnn(CC(=O)N(c3ccc(F)cc3)C(C(=O)NC(C)(C)C)c3ccco3)n2)o1 (stereo unspecified) | inconclusive: 18.4 µM [cytotoxic, single point] | –
CCCC(CC)Sc1nc2c([nH]1)c(=S)n(C)c(=O)n2C (stereo unspecified) | inconclusive: 29.1 µM [cytotoxic, single point] | –
Cc1ccc(C(=O)Nc2ccccc2N2CCCCC2)o1 | inconclusive: 0.366 µM [cytotoxic, full curve, poor fit] | –
CN1C2C=C3C(C#N)=C(N)C(C#N)(C#N)[C@H](c4c(F)cccc4F)[C@H]3C1CC2 (stereo partly specified) | inactive | –
Cc1cn([C@H]2C[C@H](O)[C@@H](CNC/C=C/c3ccccc3[N+](=O)[O-])O2)c(=O)[nH]c1=O | inactive | –
Cn1cc(/C=N/n2cnc3sc4c(c3c2=O)CCCC4)c2ccccc21 | inconclusive: 29.1 µM [cytotoxic, single point] | –
C=CCN(CC=C)CC(O)CN(c1cc([N+](=O)[O-])ccc1OC)S(=O)(=O)c1ccccc1 (stereo unspecified) | inactive | –
CCN(C(=O)CSc1nnc(-c2ccccc2OC)n1N)c1c(N)n(Cc2ccccc2)c(=O)[nH]c1=O | inconclusive: 29.1 µM [rising, single point] | –
Cc1ccc(C(CC(=O)Nc2ccc(C)cc2C)N2Cc3ccccc3C2=O)cc1 (stereo unspecified) | inconclusive: 18.4 µM [cytotoxic, partial curve] | –
CCCCNC(=S)N/N=C/c1ccc(C)s1 | inactive | –

SMILES | Potency | activity change, negative = cytotoxic
COC(=O)c1c[nH]c2c1-c1cc(C(=O)OCc3ccccc3)n(S(=O)(=O)c3ccc(C)cc3)c1C(=O)C2=O | active: 2.91 µM | –
COc1ccc(N2CCN(c3cc(C)nc4ccc(OC)cc34)CC2)cc1 | inactive | –
N/C(=N\OC(=O)c1cc(-c2ccccc2)nc2ccccc12)c1ccccn1 | inactive | –
O=C(Nc1ccc(Cl)cn1)c1ccc(Oc2ccccc2)cc1 | inconclusive: 29.1 µM [cytotoxic, single point] | –
C/C(=N\Nc1ncc(Cl)cc1Cl)c1ccccn1 | inconclusive: 0.82 µM [cytotoxic, full curve, poor fit] | –
O=C(COC(=O)Cn1nnc2ccccc21)Nc1ccccc1Br | inactive | –
Cc1ccc(-n2c(=O)c3sccc3n(Cc3cc(=O)n4ccccc4n3)c2=O)cc1 | inconclusive: 20.6 µM [rising, partial curve, poor fit] | –
COc1ccc(S(=O)(=O)n2nc(OC(=O)c3c(-c4ccccc4Cl)noc3C)cc2N)cc1 | inconclusive: 9.2 µM [cytotoxic, partial curve, poor fit] | –
O=C1CCCc2c1cc(C(=O)NCc1ccco1)c(=O)n2-c1ccc(Cl)cc1 | inconclusive: 20.6 µM [rising, single point] | –
COc1ccc(C(=O)N=c2sc3cc(Cl)ccc3n2C)cc1 | inactive | –
CCC(C)c1ccc(O)c(NC(=O)c2cncc(Br)c2)c1 (stereo unspecified) | inconclusive: 20.6 µM [cytotoxic, single point] | –
COC(=O)c1ccc(NCN2C(=O)C3C4CCC(C4)C3C2=O)cc1 (stereo unspecified) | inactive | –
C=CCn1c(=O)c2c3c(sc2n2c(Nc4ccccc4)nnc12)CCCC3 | inconclusive: 22.4 µM [cytotoxic, single point] | –
Cc1ccc(/C=N/NC(=O)c2ccc3ccccc3c2)s1 | active: 5.8 µM | –
Cc1ccc(-c2cn3c4c(=O)n(C)c(=O)n(C)c4nc3n2-c2cccc(Cl)c2)cc1 | inactive | –
COc1cccc(/C=C/C(=O)Nc2ccc(OC)nc2)c1 | inconclusive: 11.6 µM [cytotoxic, partial curve, poor fit] | –
Cc1ccc(S(=O)(=O)N2CCN(C(=O)COC(=O)/C=C/c3ccc(OC(F)F)cc3)CC2)cc1 | inconclusive: 29.1 µM [cytotoxic, single point] | –
C=CCOc1ccc(CN(C)Cc2nc3cc(C(F)(F)F)ccc3c(=O)[nH]2)cc1 | inactive | –
CC(C)[C@H](NC(=O)c1ccccc1Cl)C(=O)OCC(=O)Nc1ccc(S(=O)(=O)N2CCOCC2)cc1 | inconclusive: 0.0092 µM [cytotoxic, full curve] | –
COc1ccccc1OC(C)C(=O)Nc1ccc2c(c1)OCCO2 (stereo unspecified) | inconclusive: 29.1 µM [rising, partial curve, poor fit] | –
O=C(c1ccccc1)C1CN(c2ccccc2)CC1c1ccc(Cl)cc1 (stereo unspecified) | inactive | –
CCc1ccc2[nH]c3nc(SCC(=O)NNC(=O)c4ccc(C(C)(C)C)cc4)nnc3c2c1 | inconclusive: 14.6 µM [cytotoxic, partial curve, poor fit] | –

Whole records, looked up by structure:
C=CCOc1ccc(CN(C)Cc2nc3cc(C(F)(F)F)ccc3c(=O)[nH]2)cc1 as listed: Potency: inactive
O=C(Nc1ccc(Cl)cn1)c1ccc(Oc2ccccc2)cc1 as listed: Potency: inconclusive: 29.1 µM [cytotoxic, single point]

Next compounds

SMILES | Potency | activity change, negative = cytotoxic
COc1ccc(C(=O)O/N=C(\N)c2ccc(OC)c(OC)c2)c(OC)c1 | inactive | –
Cc1ccc(-c2cc(C(F)F)n3ncc(C(=O)N4CCN5CCCC5C4)c3n2)cc1 (stereo unspecified) | inconclusive: 29.1 µM [cytotoxic, single point] | –
O=C(NC1(C(F)(F)F)Oc2ccccc2O1)N1CCCC1 | inconclusive: 29.1 µM [cytotoxic, single point] | –
COc1ccc(OC)c(CCNC(=O)C(C)n2nc(C)c3c(C)n(-c4ccc(C)cc4)nc3c2=O)c1 (stereo unspecified) | inconclusive: 2.31 µM [cytotoxic, full curve] | –
CCOC(=O)C1=C(c2ccc(OC)cc2)C(=O)c2ccccc2C1=O | inconclusive: 18.4 µM [cytotoxic, single point] | –
O=C(C=Cc1ccccc1)c1cc(Br)ccc1O | inactive | –
COc1ccccc1CNc1ncnc2nc[nH]c12 | – | inconclusive: -13.8%
c1coc(-c2nn3c(-c4ccco4)nnc3s2)c1 | inactive | –
CC1CCN(S(=O)(=O)c2ccc3c(c2)c(=O)c(C(=O)NCc2ccco2)cn3C)CC1 | inconclusive: 29.1 µM [cytotoxic, single point] | –
Cc1cc(NC(=O)COC(=O)c2oc3c(ccc4ccccc43)c2C)no1 | inconclusive: 20.6 µM [cytotoxic, partial curve, poor fit] | –
C/C(CCC12CC3CC(CC(C3)C1)C2)=N\NC(N)=S | inactive | –
COc1ccc(N(CC(=O)Nc2ccc(Cl)cc2C)S(=O)(=O)c2ccccc2)c(OC)c1 | inactive | –
CC1(c2nnc(-c3ccc(F)cc3)o2)CC(c2c(Cl)cccc2Cl)=NO1 (stereo unspecified) | inconclusive: 20.6 µM [cytotoxic, partial curve] | –
CC(C)(C)c1ccc(NC(=O)NC2CCCc3ccccc32)cc1 (stereo unspecified) | inconclusive: 20.6 µM [cytotoxic, single point] | –
CN1CCN(c2ccc(S(=O)(=O)N3CCOCC3)cc2NC(=O)COc2ccc(C#N)cc2)CC1 | inactive | –
COc1ccc(C(=O)Nc2sc3c(c2C(=O)O)CC(C)(C)OC3)cc1 | inconclusive: 18.4 µM [cytotoxic, single point] | –
CCCc1noc(-c2ccc(NCc3ccc(C)cc3)c([N+](=O)[O-])c2)n1 | inactive | –
CCOC1=C2[C@@H](CN(S(=O)(=O)c3ccccc3C)[C@H]2c2ccc(Cl)cc2)[C@H]2C(=O)N(C3CCCCC3)C(=O)[C@H]2C1 | inconclusive: 13 µM [cytotoxic, partial curve, poor fit] | –
COc1ccccc1CN(C)C(=O)C(c1ccccc1)c1ccccc1 | inconclusive: 23.1 µM [cytotoxic, single point] | –
CCCCN(C(=O)Nc1ccccc1)C1CCS(=O)(=O)C1 (stereo unspecified) | inconclusive: 16.4 µM [cytotoxic, single point] | –
CS(=O)(=O)c1ccc(NC(=O)c2cccc(S(=O)(=O)N3CCN(Cc4ccccc4)CC3)c2)cc1 | inconclusive: 10.3 µM [cytotoxic, partial curve] | –
Cc1ccc(C)c(N2CCN(C(=O)c3cc(S(=O)(=O)N4CCOCC4)ccc3F)CC2)c1 | inconclusive: 18.4 µM [cytotoxic, single point] | –
